According to the supplement of paper PMC12819154, “High-throughput peptide-centric local stability assay extends protein–ligand identification to membrane proteins, tissues and bacteria” (Nature Structural & Molecular Biology, 2025):
Some of the results follow. Most entries show no effect beyond the scatter of the controls.

The chains behind the UniProt entries cited, without tags or fusion partners. Where a name states a change or a piece, a line headed by the entry shows the natural chain unless it says otherwise.
UniProt Q01581: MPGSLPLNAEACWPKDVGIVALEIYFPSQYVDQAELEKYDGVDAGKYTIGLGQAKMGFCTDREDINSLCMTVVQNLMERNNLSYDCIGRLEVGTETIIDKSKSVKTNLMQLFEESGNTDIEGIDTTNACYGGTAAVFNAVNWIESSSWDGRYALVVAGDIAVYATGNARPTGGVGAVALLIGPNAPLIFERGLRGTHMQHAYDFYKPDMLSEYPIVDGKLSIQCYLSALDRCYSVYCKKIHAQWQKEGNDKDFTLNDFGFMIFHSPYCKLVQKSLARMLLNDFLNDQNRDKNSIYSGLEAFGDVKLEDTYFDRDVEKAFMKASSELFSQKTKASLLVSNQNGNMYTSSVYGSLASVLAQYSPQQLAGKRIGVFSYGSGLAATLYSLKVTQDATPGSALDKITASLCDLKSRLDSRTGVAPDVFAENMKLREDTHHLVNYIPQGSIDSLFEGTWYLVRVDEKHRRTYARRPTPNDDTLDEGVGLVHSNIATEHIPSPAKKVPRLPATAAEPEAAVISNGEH
UniProt Q12824, whole entry: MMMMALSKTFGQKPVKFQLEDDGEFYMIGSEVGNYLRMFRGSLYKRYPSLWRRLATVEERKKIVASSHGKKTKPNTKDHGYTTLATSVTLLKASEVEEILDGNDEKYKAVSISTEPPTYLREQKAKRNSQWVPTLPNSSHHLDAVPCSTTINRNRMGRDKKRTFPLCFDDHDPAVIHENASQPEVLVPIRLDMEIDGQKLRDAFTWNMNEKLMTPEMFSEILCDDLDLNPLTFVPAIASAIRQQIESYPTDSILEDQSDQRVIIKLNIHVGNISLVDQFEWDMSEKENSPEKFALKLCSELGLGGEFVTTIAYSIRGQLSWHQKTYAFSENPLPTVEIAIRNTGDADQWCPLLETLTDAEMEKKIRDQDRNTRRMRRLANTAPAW
UniProt P84095: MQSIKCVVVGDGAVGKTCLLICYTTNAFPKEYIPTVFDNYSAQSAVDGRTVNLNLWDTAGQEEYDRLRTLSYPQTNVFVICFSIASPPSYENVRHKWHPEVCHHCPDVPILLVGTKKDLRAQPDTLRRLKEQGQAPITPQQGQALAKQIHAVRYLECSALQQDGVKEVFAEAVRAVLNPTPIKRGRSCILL
UniProt Q12768: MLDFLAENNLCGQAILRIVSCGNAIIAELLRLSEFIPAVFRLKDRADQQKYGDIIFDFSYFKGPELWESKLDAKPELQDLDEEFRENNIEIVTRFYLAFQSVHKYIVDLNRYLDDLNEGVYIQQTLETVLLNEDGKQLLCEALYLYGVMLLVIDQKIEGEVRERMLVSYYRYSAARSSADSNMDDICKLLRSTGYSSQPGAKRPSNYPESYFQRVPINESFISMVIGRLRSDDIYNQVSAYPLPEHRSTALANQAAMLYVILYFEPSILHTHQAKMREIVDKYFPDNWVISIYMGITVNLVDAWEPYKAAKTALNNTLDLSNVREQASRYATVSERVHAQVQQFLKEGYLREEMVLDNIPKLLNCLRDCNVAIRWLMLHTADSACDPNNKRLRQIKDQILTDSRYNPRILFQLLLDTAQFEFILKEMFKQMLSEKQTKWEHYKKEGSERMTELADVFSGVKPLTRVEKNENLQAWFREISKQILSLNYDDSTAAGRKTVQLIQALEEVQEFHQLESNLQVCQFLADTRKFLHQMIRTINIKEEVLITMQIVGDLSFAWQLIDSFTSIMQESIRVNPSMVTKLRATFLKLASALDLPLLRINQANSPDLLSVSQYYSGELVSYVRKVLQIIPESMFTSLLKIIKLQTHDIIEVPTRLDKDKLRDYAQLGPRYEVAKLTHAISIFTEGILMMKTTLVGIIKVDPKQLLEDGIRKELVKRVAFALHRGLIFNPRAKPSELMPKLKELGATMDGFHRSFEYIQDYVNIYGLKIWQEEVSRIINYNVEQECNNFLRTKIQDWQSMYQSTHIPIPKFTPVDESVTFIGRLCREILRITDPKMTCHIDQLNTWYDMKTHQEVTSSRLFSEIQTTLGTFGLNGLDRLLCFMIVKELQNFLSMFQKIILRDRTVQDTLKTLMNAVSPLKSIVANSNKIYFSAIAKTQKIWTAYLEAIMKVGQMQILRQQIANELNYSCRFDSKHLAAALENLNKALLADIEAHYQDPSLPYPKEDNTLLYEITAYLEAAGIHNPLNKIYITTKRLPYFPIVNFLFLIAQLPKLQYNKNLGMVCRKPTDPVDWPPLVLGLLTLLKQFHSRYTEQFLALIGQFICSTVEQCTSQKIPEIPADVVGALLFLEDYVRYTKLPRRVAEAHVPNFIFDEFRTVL
UniProt Q01804: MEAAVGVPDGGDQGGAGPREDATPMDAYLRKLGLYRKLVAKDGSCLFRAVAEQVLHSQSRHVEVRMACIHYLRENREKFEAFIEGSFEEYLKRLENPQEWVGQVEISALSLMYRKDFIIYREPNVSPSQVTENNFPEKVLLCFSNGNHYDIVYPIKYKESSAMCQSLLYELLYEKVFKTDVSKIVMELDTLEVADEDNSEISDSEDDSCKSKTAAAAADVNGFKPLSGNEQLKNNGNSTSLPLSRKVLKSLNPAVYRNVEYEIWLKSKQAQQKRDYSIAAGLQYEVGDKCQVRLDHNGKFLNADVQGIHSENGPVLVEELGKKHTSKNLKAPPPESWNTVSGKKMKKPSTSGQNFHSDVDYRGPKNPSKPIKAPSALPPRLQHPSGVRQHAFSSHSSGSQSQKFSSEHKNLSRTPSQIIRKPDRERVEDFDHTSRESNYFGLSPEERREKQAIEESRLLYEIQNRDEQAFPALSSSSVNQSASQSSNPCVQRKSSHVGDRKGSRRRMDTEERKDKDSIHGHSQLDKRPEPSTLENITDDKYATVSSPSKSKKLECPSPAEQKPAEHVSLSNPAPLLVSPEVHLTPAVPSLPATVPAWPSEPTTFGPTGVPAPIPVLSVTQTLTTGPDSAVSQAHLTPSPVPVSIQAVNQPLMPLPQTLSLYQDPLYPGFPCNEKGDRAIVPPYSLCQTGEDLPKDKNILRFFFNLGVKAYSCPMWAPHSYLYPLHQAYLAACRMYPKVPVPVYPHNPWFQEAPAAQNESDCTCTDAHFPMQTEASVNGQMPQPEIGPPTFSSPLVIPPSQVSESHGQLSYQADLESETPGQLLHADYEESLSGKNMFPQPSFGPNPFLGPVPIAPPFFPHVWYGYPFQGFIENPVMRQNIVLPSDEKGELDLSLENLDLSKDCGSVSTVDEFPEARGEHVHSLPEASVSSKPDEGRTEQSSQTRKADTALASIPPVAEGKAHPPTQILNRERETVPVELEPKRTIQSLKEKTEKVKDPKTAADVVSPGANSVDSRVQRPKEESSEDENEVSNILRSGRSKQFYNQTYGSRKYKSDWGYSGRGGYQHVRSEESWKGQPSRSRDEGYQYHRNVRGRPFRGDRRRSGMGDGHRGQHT
UniProt Q12769: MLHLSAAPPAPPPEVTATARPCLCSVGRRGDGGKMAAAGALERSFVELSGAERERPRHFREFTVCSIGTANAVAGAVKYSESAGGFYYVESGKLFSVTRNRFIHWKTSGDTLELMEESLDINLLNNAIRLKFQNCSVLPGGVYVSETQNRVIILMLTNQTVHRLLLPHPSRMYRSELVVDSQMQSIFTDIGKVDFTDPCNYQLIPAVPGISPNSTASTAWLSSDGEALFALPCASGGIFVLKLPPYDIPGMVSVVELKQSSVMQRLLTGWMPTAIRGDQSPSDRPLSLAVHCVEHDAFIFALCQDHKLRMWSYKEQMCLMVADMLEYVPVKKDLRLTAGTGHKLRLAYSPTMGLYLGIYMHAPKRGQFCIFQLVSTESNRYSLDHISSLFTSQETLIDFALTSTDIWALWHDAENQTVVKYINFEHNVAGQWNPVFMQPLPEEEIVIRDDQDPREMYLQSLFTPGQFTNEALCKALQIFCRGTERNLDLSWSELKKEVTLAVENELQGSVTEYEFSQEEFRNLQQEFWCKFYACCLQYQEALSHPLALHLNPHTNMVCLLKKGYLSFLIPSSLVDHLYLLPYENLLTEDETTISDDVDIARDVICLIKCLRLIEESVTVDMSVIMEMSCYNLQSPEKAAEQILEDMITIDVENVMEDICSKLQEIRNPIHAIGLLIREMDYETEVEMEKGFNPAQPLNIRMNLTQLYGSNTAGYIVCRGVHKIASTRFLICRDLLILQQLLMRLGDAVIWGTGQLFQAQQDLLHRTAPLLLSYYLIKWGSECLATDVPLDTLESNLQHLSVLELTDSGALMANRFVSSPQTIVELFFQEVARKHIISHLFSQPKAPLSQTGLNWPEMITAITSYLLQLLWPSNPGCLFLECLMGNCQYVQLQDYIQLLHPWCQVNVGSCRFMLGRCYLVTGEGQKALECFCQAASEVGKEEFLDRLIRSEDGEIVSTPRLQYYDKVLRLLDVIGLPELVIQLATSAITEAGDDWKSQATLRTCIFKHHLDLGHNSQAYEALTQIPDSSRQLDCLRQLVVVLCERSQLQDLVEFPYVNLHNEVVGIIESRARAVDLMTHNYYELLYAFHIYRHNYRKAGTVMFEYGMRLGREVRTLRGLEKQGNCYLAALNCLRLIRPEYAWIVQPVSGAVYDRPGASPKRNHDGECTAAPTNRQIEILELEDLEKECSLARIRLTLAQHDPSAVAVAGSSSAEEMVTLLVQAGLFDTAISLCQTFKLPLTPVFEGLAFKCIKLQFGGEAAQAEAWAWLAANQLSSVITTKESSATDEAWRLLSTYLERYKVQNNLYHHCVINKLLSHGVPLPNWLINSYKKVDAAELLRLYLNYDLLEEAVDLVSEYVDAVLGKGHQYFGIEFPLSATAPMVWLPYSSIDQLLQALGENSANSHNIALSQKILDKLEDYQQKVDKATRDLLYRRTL
UniProt Q00587: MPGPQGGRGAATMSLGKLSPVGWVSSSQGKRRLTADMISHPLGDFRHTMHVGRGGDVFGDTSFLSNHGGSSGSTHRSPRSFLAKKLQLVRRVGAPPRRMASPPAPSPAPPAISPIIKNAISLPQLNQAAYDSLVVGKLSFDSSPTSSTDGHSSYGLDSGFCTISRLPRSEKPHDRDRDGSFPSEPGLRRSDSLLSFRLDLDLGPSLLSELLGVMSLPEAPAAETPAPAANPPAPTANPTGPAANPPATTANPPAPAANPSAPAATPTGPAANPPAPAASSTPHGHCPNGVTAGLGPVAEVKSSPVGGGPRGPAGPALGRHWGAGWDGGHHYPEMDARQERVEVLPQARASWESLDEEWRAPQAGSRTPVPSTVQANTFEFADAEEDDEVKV
UniProt Q00403, whole entry: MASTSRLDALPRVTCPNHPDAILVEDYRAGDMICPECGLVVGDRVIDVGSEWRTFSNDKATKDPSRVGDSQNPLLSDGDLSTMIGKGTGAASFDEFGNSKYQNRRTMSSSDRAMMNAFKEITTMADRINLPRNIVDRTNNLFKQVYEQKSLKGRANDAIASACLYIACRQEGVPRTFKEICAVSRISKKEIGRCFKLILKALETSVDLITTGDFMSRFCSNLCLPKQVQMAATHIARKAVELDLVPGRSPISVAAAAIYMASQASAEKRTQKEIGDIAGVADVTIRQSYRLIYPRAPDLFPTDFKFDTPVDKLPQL
UniProt P99999: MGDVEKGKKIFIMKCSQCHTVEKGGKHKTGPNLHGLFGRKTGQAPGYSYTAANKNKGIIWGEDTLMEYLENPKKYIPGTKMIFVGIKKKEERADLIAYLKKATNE
UniProt Q13011: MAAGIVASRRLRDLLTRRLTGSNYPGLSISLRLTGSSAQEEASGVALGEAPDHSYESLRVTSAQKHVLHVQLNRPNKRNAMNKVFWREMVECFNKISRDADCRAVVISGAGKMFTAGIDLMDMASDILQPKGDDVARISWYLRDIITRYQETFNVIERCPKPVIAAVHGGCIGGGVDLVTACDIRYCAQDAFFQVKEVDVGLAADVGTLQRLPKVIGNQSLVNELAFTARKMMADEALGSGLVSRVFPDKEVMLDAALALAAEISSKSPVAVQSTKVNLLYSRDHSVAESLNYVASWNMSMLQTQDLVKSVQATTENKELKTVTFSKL

compound: Cc1nc(Nc2ncc(C(=O)Nc3c(C)cccc3Cl)s2)cc(N2CCN(CCO)CC2)n1 [dasatinib]; assay: log2 fold change of tryptic peptide abundance, ligand vs vehicle (limited proteolysis) (log2 ratio); higher = more trypsin-susceptible (destabilized); conditions: ligand concentration: 5 uM; sample: K562 cleared lysate

Row | Target | log2 fold change
1 | HMGCS1 (peptide sequence: NNLSYDCIGR, peptide start residue: 80) (UniProt Q01581) | -0.335
2 | UniProt Q12824 (peptide sequence: IVASSHGKK, peptide start residue: 63) | -0.291
3 | UniProt P84095 (peptide sequence: HKWHPEVCHHCPDVPILLVGTK, peptide start residue: 95) | -0.324
4 | UniProt Q12768 (peptide sequence: IYFSAIAK, peptide start residue: 929) | 0.304
5 | OTUD4 (peptide sequence: APPPESWNTVSGKK, peptide start residue: 331) (UniProt Q01804) | -0.307
6 | NUP160 (peptide sequence: SEDGEIVSTPR, peptide start residue: 949) (UniProt Q12769) | -0.312
7 | CDC42EP1 (peptide sequence: DGSFPSEPGLR, peptide start residue: 178) (UniProt Q00587) | -0.23
8 | GTF2B (peptide sequence: APDLFPTDFK, peptide start residue: 296) (UniProt Q00403) | -0.225
9 | CYCS (peptide sequence: ADLIAYLK, peptide start residue: 93) (UniProt P99999) | 0.0137
10 | ECH1 (peptide sequence: SVQATTENK, peptide start residue: 310) (UniProt Q13011) | 0.359
11 | CENPE (peptide sequence: SLFILGQVIK, peptide start residue: 261) (UniProt Q02224) | 0.555

Some values from the entries so far.
For log2 fold change, UniProt P84095 (peptide sequence: HKWHPEVCHHCPDVPILLVGTK, peptide start residue: 95) is listed with -0.324
For log2 fold change, ECH1 (peptide sequence: SVQATTENK, peptide start residue: 310) (UniProt Q13011) is listed with 0.359
